In PubChem BioAssay AID493014 (National Center for Advancing Translational Sciences (NCATS), 2011):
This is one part of the list. The main result of the screen is listed elsewhere. These columns were measured beside it and carry no call. Compounds called inactive in the main read-out are mostly missing here. Potencies come from curve fits of mixed quality, noted in brackets.

Experiment: qHTS Assay to Find Inhibitors of Chronic Active B-Cell Receptor Signaling
Settings: ABC-DLBCL IkBa-CBG/CBR reporter, luminescence ratio (green luciferase fused to IkBa over red control in TMD8 lymphoma cells), 4 h
Summary of the method: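 Concentration-response series (up to 46 uM) were applied to TMD8 dual-reporter cells for 4 h at 37C with doxycycline. Green/red ratio, after filter-overlap correction, defined %Activity; red signal alone was normalised to basal cells and zero luminescence.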

[1] = measured here: CBR red luminescence, cell number
[2] = measured here: IkBa-CBG green luminescence

SMILES	AC50 [1]	AC50 [2]
CC(=O)NCCNc1nc2c(-c3ccccc3)nnn2c2ccccc12	1.12 µM [falling, full curve]	
CN(c1ccccc1)S(=O)(=O)c1cccc(NC(=O)c2cc3ccccc3oc2=O)c1	15.8 µM [falling, single point]	
CCC1Oc2ccc(C)cc2N(CC(=O)N(Cc2cccnc2)Cc2cccc(F)c2)C1=O (configuration not stated)	0.00411 µM [rising, full curve, poor fit]	
O=c1c(-c2ccccc2)coc2c(CN3CCOCC3)c(O)ccc12	25.9 µM [rising, single point]	
CCOc1ccc(C(=O)Nc2nc(C)c(C(=O)OC)s2)cc1	0.631 µM [falling, partial curve, poor fit]	
O=C(NNC(=S)NC1CC2C=CC1C2)c1cccnc1 (configuration not stated)	6.31 µM [rising, single point]	
O=C(NC1(C(F)(F)F)N=C2SCCN2C1=O)c1cccnc1 (configuration not stated)	5.17 µM [falling, single point]	
CCOc1ccc(-n2c(SCC(=O)NCc3ccco3)nc3ccccc3c2=O)cc1	2.82 µM [rising, partial curve, poor fit]	
COc1ccc(NC(=O)C2C3C=CC4(O3)C2C(=O)N(CCN2CCCCC2)C4C(=O)NC2CCCCC2)cc1 (configuration not stated)	1.78 µM [rising, full curve, poor fit]	
Cc1ccccc1S(=O)(=O)Cc1ccc(C(=O)NC2CCC(C)CC2)o1 (configuration not stated)	6.31 µM [falling, single point]	
Cc1ccc(/C=C/C(=O)Nc2cc(S(=O)(=O)N3CCOCC3)ccc2N2CCOCC2)cc1	5.8 µM [rising, partial curve, poor fit]	25.9 µM [falling, partial curve, poor fit]
O=C(COC(=O)c1nc(Cl)c(Cl)c(Cl)c1Cl)NCc1ccccc1		29.1 µM [falling, single point]
CCOc1cccc2cc(C(=O)Nc3nccs3)c(=O)oc12	1 µM [rising, full curve, poor fit]	
Cc1cccc(NC(=S)NC2CCCCC2)n1	11.2 µM [rising, single point]	
O=C(CSc1ccccc1)Nc1nnc(C2CC2)s1	6.31 µM [rising, full curve, poor fit]	
Cc1ccc(C)c(OCCC(=O)OCC(=O)NC(=O)NCc2ccccc2)c1	29.1 µM [falling, single point]	
Cc1c(C(=O)NCCCN2CCCC2=O)oc2ccccc12	3.66 µM [rising, full curve, poor fit]	
Cc1cc(C)c(-c2cc(NC(=O)COC(=O)c3ccc(CO)cc3)n(-c3ccccc3)n2)cc1C	4.11 µM [rising, full curve, poor fit]	
Cc1ccc(CNC(=O)CC(C)S(=O)(=O)c2ccc3c(c2)NC(=O)C(C)S3)cc1 (configuration not stated)	17.8 µM [falling, partial curve, poor fit]	
CCOC(=O)c1nn(-c2ccccc2)c(=O)c2c(NC(C)=O)scc12	0.794 µM [falling, full curve, poor fit]	
O=C(Cc1ccccc1)Nc1ccccc1C(=O)NCC1CCCO1 (configuration not stated)	0.708 µM [falling, partial curve, poor fit]	
Cc1cccc(C(=O)NNC(=O)c2ccc(F)cc2)c1	20.6 µM [falling, single point]	

SMILES	AC50 [1]	AC50 [2]
CC(C)NC(=O)c1[nH]nc2c1CCc1ccccc1-2	7.94 µM [falling, partial curve]	
Cn1c(=O)[nH]c2nc[nH]c2c1=O	14.6 µM [falling, single point]	
CC(C)NC(=O)N(C)C[C@H]1Oc2ccc(NC(=O)CCC(F)(F)F)cc2C(=O)N([C@H](C)CO)C[C@@H]1C	29.1 µM [rising, single point]	
OC1(c2ccc3ccccc3c2)CCN(Cc2ccccc2)C1 (configuration not stated)	11.6 µM [falling, single point]	
O=C(N/N=C/c1cccnc1)c1cccs1	35.5 µM [falling, single point]	
Nn1cnnc1N/N=C/c1ccc(F)cc1	35.5 µM [falling, single point]	
CC1CCCN(CCCNC(=O)c2coc3nc4ccccc4nc23)C1 (configuration not stated)	8.91 µM [falling, partial curve]	
Cn1c(=NC(=O)COc2ccccc2)sc2ccccc21	4.47 µM [falling, full curve]	
CC(C)Nc1nc(-c2cccnc2)nc(-c2ccc(Cl)cc2)c1C#N	12.6 µM [rising, single point]	
O=C(N/N=C/c1ccc(F)cc1)c1ccccc1	6.31 µM [falling, partial curve]	
C#CCOC(=O)Nc1ccc(=O)n(Cc2c(Cl)cccc2Cl)c1	11.2 µM [falling, partial curve, poor fit]	
CCOc1ccc(NC(=O)CN2C(=O)C3CC=CCC3C2=O)cc1 (configuration not stated)	29.1 µM [rising, single point]	
O=C(CN(C(=O)CNC(=O)c1ccco1)c1ccc(F)cc1)NC1CCCCC1	1.26 µM [falling, partial curve]	
Cc1cc(NS(=O)(=O)c2ccc(NC(=O)/C=C/c3cccc(Cl)c3)cc2)no1	17.8 µM [falling, partial curve, poor fit]	
CCOC(=O)C1=C(CC)Nc2ccccc2N=C1NC(=O)c1ccc(S(=O)(=O)N2CCOCC2)cc1	0.355 µM [rising, partial curve, poor fit]	
Cc1ccc(C(O)(c2ccccc2)c2ccccc2C(C)N(C)C)c(C)c1 (configuration not stated)	10 µM [falling, partial curve]	
COC(=O)CNc1cccc(C(F)(F)F)c1	3.16 µM [falling, full curve, poor fit]	
CC(CN(C)C)CN1c2ccccc2Sc2ccccc21 (configuration not stated)	20.6 µM [falling, single point]	
CC(=O)/C(N=Nc1ccc(SC(F)F)cc1)=C(\C)O	1.12 µM [rising, full curve, poor fit]	
COC(=O)c1ccccc1NC(=O)NCc1ccco1	29.1 µM [falling, single point]	
CCOC(=O)CN=C(NS(=O)(=O)c1ccc(Cl)cc1)c1ccccc1	17.8 µM [rising, partial curve, poor fit]	
CC(=O)c1c(N2CCCC2)nc(=S)n(-c2ccccc2)c1C	1.16 µM [falling, partial curve, poor fit]	

Random excerpt: 2 compounds from above, in no set order.
SMILES	AC50 [1]	AC50 [2]
CC(=O)/C(N=Nc1ccc(SC(F)F)cc1)=C(\C)O	1.12 µM [rising, full curve, poor fit]	
Cn1c(=O)[nH]c2nc[nH]c2c1=O	14.6 µM [falling, single point]	

Further structures follow.

SMILES	AC50 [1]	AC50 [2]
O=C(Nc1ccc2c(c1)oc1ccccc12)N1CCOCC1	35.5 µM [falling, single point]	
Cc1cc(Cl)ccc1OCc1nnc2n1CCCCC2	6.31 µM [rising, single point]	
CCc1ccc(C2c3[nH]c4ccccc4c3CCN2C(=O)CN2CCN(CC)CC2)cc1 (configuration not stated)	12.6 µM [falling, single point]	
CSc1cnn(Cc2ccccc2)c(=O)c1SCc1ccccc1		29.1 µM [falling, single point]
CCOC(=O)Cc1csc(NC(=O)c2cc3c(s2)CCCC3)n1	8.2 µM [falling, partial curve, poor fit]	
O=C(O)/C=C/C(=O)NNC(=O)c1cc(-c2ccccc2)n[nH]1	35.5 µM [falling, single point]	
CCOC(=O)C1CCN(S(=O)(=O)c2cc3c4c(c2)CC(=O)N4CCC3)CC1	1.26 µM [rising, full curve, poor fit]	
CCN(CC)S(=O)(=O)c1ccc(NN=C2CCN(C)CC2)c([N+](=O)[O-])c1	11.2 µM [falling, single point]	
O=C1C(c2cc(=O)c3ccccc3[nH]2)=C(O)c2ccccc21	1.46 µM [falling, full curve]	
C=CCn1c(-c2csc3c2CCC(C)C3)n[nH]c1=S (configuration not stated)	29.1 µM [rising, single point]	29.1 µM [falling, single point]
N/C(=N\c1nc2ccccc2o1)NC(=O)c1ccccc1Br	0.251 µM [falling, full curve, poor fit]	
CCOC(=O)c1c(C)c(C(=O)Nc2ccc3c(c2)OCO3)c(C)n1C	0.112 µM [rising, full curve, poor fit]	
O=C(COC(=O)c1ccc(Cl)c(S(=O)(=O)N2CCCC2)c1)NCc1ccccc1	9.2 µM [rising, partial curve]	
S=C(NCc1ccccc1Cl)Nc1ccccc1Cl	35.5 µM [falling, single point]	
Cc1nn(-c2ccc(Cl)cc2)c(=O)c2ccccc12	35.5 µM [falling, single point]	
CC(C)CN1C(=O)C(=O)N(CC(=O)c2ccc3c(c2)CCCC3)C1=O	6.51 µM [rising, partial curve, poor fit]	
Cc1ccccc1Nc1sc(C(=O)c2ccccc2)c(N)c1C(=O)NCc1ccc(Cl)cc1	7.08 µM [falling, partial curve, poor fit]	
CSc1ccc(CN2CCN(S(=O)(=O)Cc3ccccc3)CC2)cc1	25.1 µM [falling, single point]	
O=C(CSCC(=O)Nc1ccc2ccccc2c1)NCc1ccccc1	12.6 µM [falling, single point]	
CCCCN(C(=O)Cn1ncc(Cl)c(Cl)c1=O)c1c(N)n(CC(C)C)c(=O)[nH]c1=O	35.5 µM [falling, single point]	
COc1ccc(N2CC(C(=O)NCc3n[nH]c(=O)c4ccccc34)CC2=O)cc1 (configuration not stated)	7.31 µM [rising, partial curve]	
